Experimental findings from the supplement of paper PMC9015667 are described below.

Counter-ions that a name gives are not always drawn. The list shows a part of the results. Repeats are few or missing, and single values can be far off. Where only a bound is given, the exact number is not on record here.

The test relates to M229P (parental melanoma line). The test can be described thus: reduction in cell viability relative to untreated/vehicle; higher = more growth inhibition. The settings on record: 200 nM; 72 h.
Regarding `Oc1cc2c(cc1O)[C@@H]1c3ccc(O)c(O)c3OC[C@]1(O)C2` [Hematoxylin], the “reduction in cell viability” value was less than 0%.

As to `C[C@H]1[C@H](C)CC[C@]2(C(=O)O)CC[C@]3(C)C(=CC[C@@H]4[C@@]5(C)CC[C@H](O)C(C)(C)[C@@H]5CC[C@]43C)[C@H]12` [Ursolic acid], the “reduction in cell viability” value was less than 0%.

On to `C[C@@H](O)[C@H]1C(=O)N2C(C(=O)OCOC(=O)C(C)(C)C)=C(SC3CN(C4=NCCS4)C3)[C@H](C)[C@H]12` [Tebipenem pivoxil], for which the “reduction in cell viability” value is less than 0%.

Regarding `O=C(Nc1nnc(-c2ccco2)o1)c1cc(-c2ccccc2)nc2ccccc12`, the “reduction in cell viability” value is less than 0%.

Take `CCOC(=O)/C=C/[C@H](C[C@@H]1CCNC1=O)NC(=O)[C@@H](CC(=O)[C@@H](NC(=O)c1cc(C)on1)C(C)C)Cc1ccc(F)cc1` [Rupintrivir]: the “reduction in cell viability” value was less than 0%.

As for `CC(C)CC(=O)Nc1n[nH]c2c1CN(C(=O)C1CCN(C)CC1)C2(C)C`, the “reduction in cell viability” value was found to be 7.14%.

In the case of `Cc1nc(-c2ccc(OCC(C)C)c(C#N)c2)sc1C(=O)O` [Febuxostat], the “reduction in cell viability” value is less than 0%.

For `O=C(NC1CC1)c1cccc(-c2ccc3c(NC(=O)C4CC4)n[nH]c3c2)c1`, the “reduction in cell viability” value was less than 0%.

Turning to `COC(=O)C1=C(C)NC(C)=C(C(=O)OCCN2CCN(C(c3ccccc3)c3ccccc3)CC2)C1c1cccc([N+](=O)[O-])c1` (stereo not drawn) [Manidipine dihydrochloride], the “reduction in cell viability” value is less than 0%.

For `O=C1CCC(N2C(=O)c3ccccc3C2=O)C(=O)N1` (stereo not drawn) [Thalidomide], the “reduction in cell viability” value was less than 0%.

In the case of `CC1(C)C(=O)N(CCN2CCC(C(=O)c3ccc(F)cc3)CC2)c2ccccc21`, the “reduction in cell viability” value is less than 0%.

In the case of `COC1=CC(c2cc3ccccc3[nH]2)=N/C1=C\c1[nH]c(C)cc1C` [Obatoclax], the “reduction in cell viability” value turned out to be 64.1%.

For the molecule `C[C@H]1c2cccc(O)c2C(=O)C2=C(O)[C@]3(O)C(=O)C(C(N)=O)=C(O)[C@@H](N(C)C)[C@@H]3[C@@H](O)[C@@H]21` [Doxycycline], the “reduction in cell viability” value is less than 0%.

Take `Cc1cn([C@H]2O[C@@H](CO)[C@H](O)[C@H]2F)c(=O)[nH]c1=O` [Clevudine]: the “reduction in cell viability” value was less than 0%.

`Cc1nc(Nc2ncc(C(=O)Nc3c(C)cccc3Cl)s2)cc(N2CCN(CCO)CC2)n1` [Dasatinib]: the “reduction in cell viability” value is less than 0%.

`CC[N+](CC)(CC)CCOc1cccc(OCC[N+](CC)(CC)CC)c1OCC[N+](CC)(CC)CC` [Gallamine triethiodide]: the “reduction in cell viability” value worked out at 0.23%.

For the molecule `Fc1ccc(C(c2ccc(F)cc2)N2CCN(C/C=C/c3ccccc3)CC2)cc1` [Flunarizine], the “reduction in cell viability” value is less than 0%.

Regarding `Cc1ccc(S(=O)(=O)OCC(=O)Nc2ccc(C(=O)O)c(O)c2)cc1`, the “reduction in cell viability” value is less than 0%.

Turning to `Clc1ccc(C2(c3ccc(-c4cn[nH]c4)cc3)CCNCC2)cc1`, the “reduction in cell viability” value is less than 0%.

Regarding `CC(=O)O[C@@H]1[C@@H](OC(C)=O)[C@@H](O)[C@H](Oc2c(-c3ccc(O)cc3)oc3cc(O)cc(O)c3c2=O)O[C@H]1C`, the “reduction in cell viability” value was less than 0%.

For the molecule `CC(C)(O)CC(=O)NCCn1ccc2ncnc(Nc3ccc(Oc4cccc(C(F)(F)F)c4)c(Cl)c3)c21`, the “reduction in cell viability” value is less than 0%.

Turning to `NS(=O)(=O)c1cc2c(cc1Cl)NCNS2(=O)=O` [Hydrochlorothiazide], the “reduction in cell viability” value is less than 0%.

As for `C[C@@H]1COC(Nc2ccc3ncnc(Nc4ccc(OCc5nccs5)c(Cl)c4)c3c2)=N1` [Varlitinib tosylate], the “reduction in cell viability” value is less than 0%.

`N#C[C@@H]1C[C@@H]2C[C@@H]2N1C(=O)[C@@H](N)C12CC3CC(CC(O)(C3)C1)C2` [Saxagliptin]: the “reduction in cell viability” value is less than 0%.

In the case of `COc1ccc(-c2nc3cc(C4=NNC(=O)CC4C)ccc3[nH]2)cc1` (stereo not drawn) [Pimobendan hydrochloride], the “reduction in cell viability” value is less than 0%.

As to `COc1ccc(-c2ccc3c(N4CCOC[C@@H]4C)nc(N4CCOC[C@@H]4C)nc3n2)cc1CO`, the “reduction in cell viability” value worked out at 55.9%.

On to `CC[C@H](CC#N)OC(=O)N[C@@H](C)c1cccc(NC(=O)Nc2ccc(-c3cnco3)c(OC)c2)c1`, for which the “reduction in cell viability” value came out at 20.6%.

`Oc1ccc(-c2nc(-c3ccc(F)cc3)c(-c3ccncc3)[nH]2)cc1`: the “reduction in cell viability” value is less than 0%.

With `Fc1cc(-c2cccc3ncc(-c4cnn(C5CCNCC5)c4)nc23)cc(F)c1CN1CCOCC1`, the “reduction in cell viability” value was less than 0%.

Consider `c1ccc(-c2oc3ncnc(NC[C@@H]4CCCO4)c3c2-c2ccccc2)cc1`, for which the “reduction in cell viability” value is less than 0%.

Turning to `CS(=O)(=O)N(Cc1ccco1)C[C@@H](O)Cn1c2ccccc2c2ccccc21`, the “reduction in cell viability” value was less than 0%.

`Cn1cc(-c2ccncc2)c(-c2ccc(OCc3ccc4ccccc4n3)cc2)n1`: the “reduction in cell viability” value is less than 0%.

In the case of `CC(C)CN(C[C@@H](O)[C@H](Cc1ccccc1)NC(=O)O[C@H]1CCOC1)S(=O)(=O)c1ccc(N)cc1` [Amprenavir], the “reduction in cell viability” value was less than 0%.
